Measured values from the supplement of paper PMC10849652.
The other results are listed elsewhere or left out.

The chains behind the UniProt entries cited, without tags or fusion partners. Where a name states a change or a piece, a line headed by the entry shows the natural chain unless it says otherwise.
UniProt P29375: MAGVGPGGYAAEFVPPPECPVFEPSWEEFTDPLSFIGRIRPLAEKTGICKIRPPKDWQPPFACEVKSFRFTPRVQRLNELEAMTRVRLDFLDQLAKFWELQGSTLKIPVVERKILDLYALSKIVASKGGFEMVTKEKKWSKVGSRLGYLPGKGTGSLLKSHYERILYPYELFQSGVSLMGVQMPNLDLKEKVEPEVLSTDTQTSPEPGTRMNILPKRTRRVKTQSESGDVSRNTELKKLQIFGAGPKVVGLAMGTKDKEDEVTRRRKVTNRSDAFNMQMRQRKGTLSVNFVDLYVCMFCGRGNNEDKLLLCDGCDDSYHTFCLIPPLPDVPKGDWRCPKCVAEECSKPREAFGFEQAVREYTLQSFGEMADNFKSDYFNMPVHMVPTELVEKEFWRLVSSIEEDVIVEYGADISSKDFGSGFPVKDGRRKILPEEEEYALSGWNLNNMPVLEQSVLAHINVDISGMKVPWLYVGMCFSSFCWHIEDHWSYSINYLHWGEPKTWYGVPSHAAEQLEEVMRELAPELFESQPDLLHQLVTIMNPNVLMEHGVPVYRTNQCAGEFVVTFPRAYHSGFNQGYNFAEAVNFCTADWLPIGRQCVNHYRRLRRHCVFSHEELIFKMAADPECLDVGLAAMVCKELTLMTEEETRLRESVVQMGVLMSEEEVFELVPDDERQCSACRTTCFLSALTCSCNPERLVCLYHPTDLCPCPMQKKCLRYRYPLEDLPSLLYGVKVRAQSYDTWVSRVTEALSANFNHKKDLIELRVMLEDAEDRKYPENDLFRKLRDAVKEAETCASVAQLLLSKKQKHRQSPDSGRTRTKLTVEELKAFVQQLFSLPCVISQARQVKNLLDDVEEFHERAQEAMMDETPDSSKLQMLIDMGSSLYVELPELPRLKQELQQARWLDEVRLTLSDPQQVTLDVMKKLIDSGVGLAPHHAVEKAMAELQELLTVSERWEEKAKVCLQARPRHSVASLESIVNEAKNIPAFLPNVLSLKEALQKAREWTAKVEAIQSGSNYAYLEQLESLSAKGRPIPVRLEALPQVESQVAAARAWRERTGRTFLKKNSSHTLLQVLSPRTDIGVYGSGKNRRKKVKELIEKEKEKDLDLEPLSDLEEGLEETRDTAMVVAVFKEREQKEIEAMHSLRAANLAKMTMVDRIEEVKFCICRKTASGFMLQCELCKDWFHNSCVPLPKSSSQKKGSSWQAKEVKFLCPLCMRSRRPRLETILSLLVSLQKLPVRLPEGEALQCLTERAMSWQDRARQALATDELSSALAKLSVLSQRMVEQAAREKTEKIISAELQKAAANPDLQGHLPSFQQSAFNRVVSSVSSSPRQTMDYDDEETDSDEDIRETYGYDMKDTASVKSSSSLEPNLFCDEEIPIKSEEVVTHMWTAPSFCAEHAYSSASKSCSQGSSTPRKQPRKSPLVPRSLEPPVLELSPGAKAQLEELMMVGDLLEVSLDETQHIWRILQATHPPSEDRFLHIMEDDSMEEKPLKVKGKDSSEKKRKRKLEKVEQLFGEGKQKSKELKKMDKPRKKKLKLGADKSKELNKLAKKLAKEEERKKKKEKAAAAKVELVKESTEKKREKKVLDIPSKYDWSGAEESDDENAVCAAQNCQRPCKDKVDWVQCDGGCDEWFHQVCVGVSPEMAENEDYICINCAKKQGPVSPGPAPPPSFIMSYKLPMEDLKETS
UniProt Q96MU8: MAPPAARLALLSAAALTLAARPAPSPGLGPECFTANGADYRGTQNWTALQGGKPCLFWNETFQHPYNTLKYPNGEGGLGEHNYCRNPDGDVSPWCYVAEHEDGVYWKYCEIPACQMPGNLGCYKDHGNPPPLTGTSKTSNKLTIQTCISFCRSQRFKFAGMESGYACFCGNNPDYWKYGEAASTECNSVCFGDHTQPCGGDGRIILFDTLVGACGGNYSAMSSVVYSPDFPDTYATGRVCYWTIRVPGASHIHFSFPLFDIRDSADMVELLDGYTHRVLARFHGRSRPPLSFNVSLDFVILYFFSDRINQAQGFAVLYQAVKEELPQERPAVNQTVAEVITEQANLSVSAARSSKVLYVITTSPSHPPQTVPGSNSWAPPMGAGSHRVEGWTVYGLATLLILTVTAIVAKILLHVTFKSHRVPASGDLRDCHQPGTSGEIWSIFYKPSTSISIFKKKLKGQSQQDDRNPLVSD
UniProt P07288: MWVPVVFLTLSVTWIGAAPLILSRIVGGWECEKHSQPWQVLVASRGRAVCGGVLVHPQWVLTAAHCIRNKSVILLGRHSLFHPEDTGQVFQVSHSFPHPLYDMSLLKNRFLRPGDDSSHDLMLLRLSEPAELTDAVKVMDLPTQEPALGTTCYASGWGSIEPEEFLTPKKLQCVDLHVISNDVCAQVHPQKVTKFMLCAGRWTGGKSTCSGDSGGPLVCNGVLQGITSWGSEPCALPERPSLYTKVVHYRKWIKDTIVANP
UniProt Q6ZV70: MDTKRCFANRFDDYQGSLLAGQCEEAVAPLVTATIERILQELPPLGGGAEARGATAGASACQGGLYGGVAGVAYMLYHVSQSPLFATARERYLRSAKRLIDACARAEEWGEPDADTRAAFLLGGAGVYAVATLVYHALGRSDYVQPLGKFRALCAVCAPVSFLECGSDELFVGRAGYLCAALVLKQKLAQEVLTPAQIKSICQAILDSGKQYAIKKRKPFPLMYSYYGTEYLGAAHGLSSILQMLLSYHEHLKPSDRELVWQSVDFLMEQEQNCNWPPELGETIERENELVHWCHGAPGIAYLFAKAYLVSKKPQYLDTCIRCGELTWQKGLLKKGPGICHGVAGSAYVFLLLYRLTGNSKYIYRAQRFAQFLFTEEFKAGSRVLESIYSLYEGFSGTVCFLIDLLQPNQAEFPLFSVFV
UniProt O95235: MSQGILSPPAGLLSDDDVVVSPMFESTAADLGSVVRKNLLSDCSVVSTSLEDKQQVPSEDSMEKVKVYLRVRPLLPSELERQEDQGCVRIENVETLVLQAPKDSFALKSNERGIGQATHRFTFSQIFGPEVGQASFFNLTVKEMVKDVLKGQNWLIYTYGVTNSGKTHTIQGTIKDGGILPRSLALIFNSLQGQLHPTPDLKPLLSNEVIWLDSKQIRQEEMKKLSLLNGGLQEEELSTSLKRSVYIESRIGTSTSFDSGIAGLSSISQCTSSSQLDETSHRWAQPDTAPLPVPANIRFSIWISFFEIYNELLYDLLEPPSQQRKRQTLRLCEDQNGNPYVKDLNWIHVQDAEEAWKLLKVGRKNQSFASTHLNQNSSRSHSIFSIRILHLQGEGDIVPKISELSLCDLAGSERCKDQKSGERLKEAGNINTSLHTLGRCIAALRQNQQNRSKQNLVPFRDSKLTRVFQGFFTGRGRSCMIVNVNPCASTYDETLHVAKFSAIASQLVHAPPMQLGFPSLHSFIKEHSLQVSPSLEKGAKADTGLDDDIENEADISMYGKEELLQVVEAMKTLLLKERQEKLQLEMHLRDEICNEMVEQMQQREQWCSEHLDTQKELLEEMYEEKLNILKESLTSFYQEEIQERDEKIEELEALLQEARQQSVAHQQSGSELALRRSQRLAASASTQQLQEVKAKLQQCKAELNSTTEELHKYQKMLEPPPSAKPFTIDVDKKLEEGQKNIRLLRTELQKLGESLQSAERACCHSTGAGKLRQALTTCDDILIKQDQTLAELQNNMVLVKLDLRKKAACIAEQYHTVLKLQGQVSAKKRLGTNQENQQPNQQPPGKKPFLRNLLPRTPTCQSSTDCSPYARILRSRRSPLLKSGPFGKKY
UniProt Q8NA19: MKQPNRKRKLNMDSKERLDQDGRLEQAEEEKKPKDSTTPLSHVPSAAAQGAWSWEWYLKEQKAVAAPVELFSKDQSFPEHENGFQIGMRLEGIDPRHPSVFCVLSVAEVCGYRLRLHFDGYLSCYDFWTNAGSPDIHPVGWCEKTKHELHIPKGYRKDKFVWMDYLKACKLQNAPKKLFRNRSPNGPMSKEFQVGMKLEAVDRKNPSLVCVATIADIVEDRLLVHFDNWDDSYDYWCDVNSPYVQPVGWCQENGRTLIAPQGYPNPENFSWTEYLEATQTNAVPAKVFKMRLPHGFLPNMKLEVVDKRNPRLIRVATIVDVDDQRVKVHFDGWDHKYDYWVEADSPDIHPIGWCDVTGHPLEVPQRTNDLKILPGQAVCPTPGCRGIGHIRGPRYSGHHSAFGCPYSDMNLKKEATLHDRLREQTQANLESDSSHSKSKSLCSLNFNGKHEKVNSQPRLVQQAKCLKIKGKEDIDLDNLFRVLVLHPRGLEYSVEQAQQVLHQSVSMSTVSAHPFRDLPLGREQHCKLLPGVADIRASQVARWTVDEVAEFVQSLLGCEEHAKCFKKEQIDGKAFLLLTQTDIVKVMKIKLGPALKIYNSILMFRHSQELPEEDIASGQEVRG
UniProt Q8N3Y3: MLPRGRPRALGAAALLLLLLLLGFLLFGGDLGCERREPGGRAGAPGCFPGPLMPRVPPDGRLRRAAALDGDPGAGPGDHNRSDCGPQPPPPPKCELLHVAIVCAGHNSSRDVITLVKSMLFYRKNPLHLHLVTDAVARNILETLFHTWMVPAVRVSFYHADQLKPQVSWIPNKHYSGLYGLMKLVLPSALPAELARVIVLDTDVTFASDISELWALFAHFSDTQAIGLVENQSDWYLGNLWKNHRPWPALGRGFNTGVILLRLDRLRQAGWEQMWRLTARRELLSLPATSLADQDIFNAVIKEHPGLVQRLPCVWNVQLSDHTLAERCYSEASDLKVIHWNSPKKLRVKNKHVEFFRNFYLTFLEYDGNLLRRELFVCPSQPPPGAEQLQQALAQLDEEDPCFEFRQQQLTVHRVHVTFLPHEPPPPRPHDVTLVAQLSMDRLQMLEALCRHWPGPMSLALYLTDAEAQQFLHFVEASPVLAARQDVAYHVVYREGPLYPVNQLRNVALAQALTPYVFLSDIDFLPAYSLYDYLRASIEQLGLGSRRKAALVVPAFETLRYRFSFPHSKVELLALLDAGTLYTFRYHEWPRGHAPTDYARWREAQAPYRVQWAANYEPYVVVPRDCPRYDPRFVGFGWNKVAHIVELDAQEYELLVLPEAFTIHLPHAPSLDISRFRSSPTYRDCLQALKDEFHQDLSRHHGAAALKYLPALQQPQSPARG
UniProt Q969R5, whole entry, looked up: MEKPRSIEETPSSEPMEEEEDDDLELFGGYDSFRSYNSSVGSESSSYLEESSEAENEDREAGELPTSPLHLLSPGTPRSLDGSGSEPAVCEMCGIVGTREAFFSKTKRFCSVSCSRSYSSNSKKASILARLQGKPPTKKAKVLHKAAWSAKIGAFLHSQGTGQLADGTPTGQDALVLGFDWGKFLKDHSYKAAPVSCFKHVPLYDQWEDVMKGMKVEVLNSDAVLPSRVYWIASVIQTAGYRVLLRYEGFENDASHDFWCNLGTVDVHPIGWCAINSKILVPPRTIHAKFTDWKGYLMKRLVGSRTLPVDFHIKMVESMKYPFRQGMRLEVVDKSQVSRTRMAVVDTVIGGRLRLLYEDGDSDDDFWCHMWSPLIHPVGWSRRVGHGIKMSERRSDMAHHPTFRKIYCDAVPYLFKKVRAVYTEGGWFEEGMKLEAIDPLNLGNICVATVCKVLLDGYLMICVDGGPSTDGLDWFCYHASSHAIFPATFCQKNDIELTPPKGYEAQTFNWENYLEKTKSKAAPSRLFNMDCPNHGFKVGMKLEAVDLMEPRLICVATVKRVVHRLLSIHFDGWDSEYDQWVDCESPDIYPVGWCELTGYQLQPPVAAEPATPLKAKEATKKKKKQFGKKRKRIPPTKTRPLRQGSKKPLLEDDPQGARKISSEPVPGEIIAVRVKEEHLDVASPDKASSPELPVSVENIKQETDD
UniProt Q6P597: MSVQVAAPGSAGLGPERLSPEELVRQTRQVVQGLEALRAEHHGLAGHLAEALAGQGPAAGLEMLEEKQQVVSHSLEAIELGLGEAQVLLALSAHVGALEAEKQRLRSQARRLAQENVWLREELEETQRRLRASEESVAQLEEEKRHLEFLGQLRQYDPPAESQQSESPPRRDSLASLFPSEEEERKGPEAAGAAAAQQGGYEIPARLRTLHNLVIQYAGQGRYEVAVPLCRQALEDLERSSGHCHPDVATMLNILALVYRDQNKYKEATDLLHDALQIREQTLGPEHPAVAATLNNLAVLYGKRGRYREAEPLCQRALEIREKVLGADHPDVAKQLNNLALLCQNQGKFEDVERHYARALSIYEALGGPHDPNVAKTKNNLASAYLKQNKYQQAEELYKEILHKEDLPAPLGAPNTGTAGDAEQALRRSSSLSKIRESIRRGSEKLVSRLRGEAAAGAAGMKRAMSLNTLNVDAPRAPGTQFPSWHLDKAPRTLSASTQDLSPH

How the values were obtained:
Assay in all cases: log2 fold change, soluble protein after heating vs DMSO (PISA); higher = thermal stabilisation; K562 lysate, 10 uM; active = over 0.2 and 3.5 SD of the protein, either way, in both replicates (recomputed)
[1] = compound: C1=CC=C(C=C1)C2=NC(=C(N2)C3=CC=NC=C3)C4=CC(=C(C=C4)Cl)O
Summary of the method: (§1)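 Dounce homogenisation of K562 pellets in PBS pH 7.4 with 1 mM MgCl2 produced a crude extract, used at 1 mg/mL protein. Exposure to 10 μM compound lasted 30 min, and aliquots were then heated for 3 min across 48°C-58°C, pooled and brought to 0.5% NP-40 at 4°C. The supernatant after 21,000xg for 90 min was quantified by TMTpro 16plex LC-MS/MS with channel sums equalised. Duplicate values are given as log-two fold change in thermal stability relative to solvent controls.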

IRAK-1-4 Inhibitor I = compound: C1COCCN1CCN2C3=CC=CC=C3N=C2NC(=O)C4=CC(=CC=C4)[N+](=O)[O-] [IRAK-1-4 Inhibitor I]
Summary of the method: as §1

ralimetinib = compound: CC(C)(C)Cn1c(N)nc2ccc(-c3[nH]c(C(C)(C)C)nc3-c3ccc(F)cc3)nc21 [ralimetinib]
Summary of the method: as §1

[2] = compound: CC(C)(O)CC(=O)NCCn1ccc2ncnc(Nc3ccc(Oc4cccc(C(F)(F)F)c4)c(Cl)c3)c21
Summary of the method: as §1

[3] = compound: CC1=C(C2=C(C=C1)C(=O)C3=CC=CC=C3N2CCCN)C
Summary of the method: as §1

[4] = compound: CC1=C(C=C(C=C1)NC(=O)C2=CC(=CC=C2)C(C)(C)C#N)NC3=CC4=C(C=C3)N=CN(C4=O)C
Summary of the method: as §1

[5] = compound: CC1=C(C=C(C=C1)NC(=O)C2=CC(=CC=C2)N(C)C)NC(=O)C3=CC=C(C=C3)O
Summary of the method: as §1

erlotinib = compound: C#Cc1cccc(Nc2ncnc3cc(OCCOC)c(OCCOC)cc23)c1 [erlotinib]
Summary of the method: as §1

[6] = compound: C1=CC(=CC=C1C2=NC3=C(N2)C=C(C=C3)C(=O)N)OC4=CC=C(C=C4)Cl
Summary of the method: as §1

[7] = compound: CC(C)C1=C2N=C(C=C(N2N=C1)NCC3=CC=CC=C3)NCCCCCCN
Summary of the method: as §1

[8] = compound: CC1=C(C(CC(=O)N1)C2=CC=C(C=C2)C(F)(F)F)C(=O)NC3=C(C=C4C(=C3)C=NN4)F
Summary of the method: as §1

[9] = compound: C/C(=N\NC(=O)C1=CC(=CC=C1)S(=O)(=O)N2CCOCC2)/C3=C(C=CC(=C3)Cl)O
Summary of the method: as §1

[10] = compound: C1=CC2=C(C=CC(=C2)/C=C\3/C(=O)NC(=NCC4=CC=CS4)S3)N=C1
Summary of the method: as §1

[11] = compound: C1=CC2=NC=CN=C2C=C1/C=C/3\C(=O)NC(=O)S3
Summary of the method: as §1

[12] = compound: C1=CC=C2C(=C1)C3=NNC4=CC=CC(=C43)C2=O
Summary of the method: as §1

[13] = compound: C1CCN(C1)C(=O)NC2=CC=CC(=C2)NC3=NC=C(C(=N3)NCCC4=CN=CN4)Br
Summary of the method: as §1

[14] = compound: C1CN(CCC1(CC2=CC=C(C=C2)Cl)N)C3=NC=NC4=C3C=CN4
Summary of the method: as §1

ibrutinib = compound: C=CC(=O)N1CCC[C@@H](n2nc(-c3ccc(Oc4ccccc4)cc3)c3c(N)ncnc32)C1 [ibrutinib]
Summary of the method: as §1

[15] = compound: CC(=O)c1cnc2ccc(-c3cc(Cl)c(O)c(Cl)c3)nc2c1N[C@H]1CC[C@H](CN(C)C)CC1
Summary of the method: as §1

[16] = compound: CC1=CC=C(C=C1)SC2=C3C=C(SC3=CN=C2)C(=O)N
Summary of the method: as §1

Measured: log2 fold change

KDM5A (UniProt P29375)
inactive: [1] 0 | IRAK-1-4 Inhibitor I -0.098 | ralimetinib -0.066 | [2] 0.074 | [3] 0 | [4] 0.092 | [5] 0.253

KREMEN1 isoform 2 (UniProt Q96MU8)
inactive: [4] -0.045

KLK3 (UniProt P07288)
inactive: [3] -0.86

KIAA0586 isoform 3 (UniProt Q9BVV6)
inactive: erlotinib 0.101 | [6] 0.258 | [1] 0.027 | IRAK-1-4 Inhibitor I -0.021 | ralimetinib -0.079 | [2] -0.059 | [7] 0.08 | [8] 0.088 | [3] 0.032 | [4] 0.118 | [5] 0.042

2 neighbouring records out of the list so far:
KLK3 (UniProt P07288)
inactive: [3] -0.86

KIAA0586 isoform 3 (UniProt Q9BVV6)
inactive: erlotinib 0.101 | [6] 0.258 | [1] 0.027 | IRAK-1-4 Inhibitor I -0.021 | ralimetinib -0.079 | [2] -0.059 | [7] 0.08 | [8] 0.088 | [3] 0.032 | [4] 0.118 | [5] 0.042

(list continues)

LANCL3 (UniProt Q6ZV70)
inactive: [9] 0.078 | [10] 0.02 | [11] 0.011 | [12] 0.135 | [13] -0.031 | [14] 0.077 | ibrutinib 0.081 | [8] -0.005

KIF20A (UniProt O95235)
inactive: [9] 0.036 | [10] -0.064 | [11] 0.093 | [1] 0 | [12] -0.011 | [13] 0.002 | [14] 0.167 | IRAK-1-4 Inhibitor I -0.004 | ibrutinib -0.017 | ralimetinib -0.007 | [2] 0.239 | [8] -0.04 | [3] 0.014 | [4] 0.012 | [5] 0.028

L3MBTL4 (UniProt Q8NA19)
inactive: [9] -0.102 | [10] 0.004 | [11] -0.074 | [1] 0.063 | [12] -0.003 | [13] -0.063 | [14] 0.046 | IRAK-1-4 Inhibitor I -0.117 | ibrutinib 0.015 | [15] -0.064 | ralimetinib -0.037 | [2] -0.107 | [8] -0.025 | [4] -0.003 | [5] 0.047 | [16] -0.025

KPNB1 (UniProt J3QKQ5)
inactive: [1] -0.025 | IRAK-1-4 Inhibitor I -0.144 | ralimetinib 0.007 | [2] -0.045 | [5] 0.334

LARGE2 (UniProt Q8N3Y3)
inactive: [8] -0.002

L3MBTL2 (UniProt Q969R5)
inactive: [13] -0.109 | [14] 0.081 | [8] -0.011 | [3] -0.031 | [4] 0.063

KIAA0930 isoform 2 (UniProt Q6ICG6)
inactive: [9] -0.004 | [10] -0.067 | [11] -0.229 | [1] -0.258 | [12] 0.203 | [13] 0.099 | [14] -0.01 | IRAK-1-4 Inhibitor I -0.063 | ibrutinib -0.16 | [15] -0.032 | ralimetinib 0.091 | [2] -0.085 | [8] -0.014 | [3] -0.119 | [4] 0.042 | [5] -0.289 | [16] -0.017

KLC3 isoform 3 (UniProt Q6P597)
inactive: [11] 0.052 | [13] 0.114 | [14] 0.002 | ibrutinib -0.055 | [15] 0.041 | [8] 0.002 | [4] 0.234 | [16] 0.001
